Patent publication US20240025996A1 (FRED HUTCHINSON CANCER CENTER, published 2024)
Results are given in words; binding and its absence hold for the method and conditions named. Some binding calls cover weakened binding; strength is not graded here.

Protein sequences, listed by entry. Tags and fused reporters are not part of them. Residues count along the entry.
soluble ROR1 ectodomain (Q01973, residues 30-406): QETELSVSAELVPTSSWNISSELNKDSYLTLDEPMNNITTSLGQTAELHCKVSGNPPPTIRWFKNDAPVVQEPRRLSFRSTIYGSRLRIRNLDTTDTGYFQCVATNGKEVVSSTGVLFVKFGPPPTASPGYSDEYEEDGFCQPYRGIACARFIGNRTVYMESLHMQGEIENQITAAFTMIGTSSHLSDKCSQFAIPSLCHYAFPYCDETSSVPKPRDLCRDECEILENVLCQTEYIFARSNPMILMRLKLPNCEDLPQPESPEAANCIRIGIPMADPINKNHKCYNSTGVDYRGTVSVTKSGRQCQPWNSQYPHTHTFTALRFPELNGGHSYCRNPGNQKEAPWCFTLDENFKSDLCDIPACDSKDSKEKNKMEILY
ROR1 Kringle fragment (Q01973, residues 312-391): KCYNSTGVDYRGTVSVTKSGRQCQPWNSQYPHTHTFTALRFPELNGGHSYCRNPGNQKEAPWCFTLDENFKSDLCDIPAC

Assays:
[1] = biological target: ROR1 Kringle fragment (UniProt Q01973); assay: Superdex 200 SEC of the complex with the Kringle fragment
[2] = biological target: T1, soluble ROR1 ectodomain (UniProt Q01973 30-406); assay: size exclusion chromatography of the complex
T1 construct: extracellular domain; also called ROR1-A647

Binder	binding [1]	binding [2]
Nb11 WT (VHH, also called free Nb11) VHH: QVKLVQSGGGLVQAGGSLRLSCAASGSIFSSASMGWYRQAPGKPREQVASITRDGNTYYEDDVKGRFTISRDNARSTGYLQMNSLTPEDTGVYYCNVYQLGFYDKWGQGTQVIVSS	binds	binds
Nb14 WT (VHH, also called free Nb14) VHH: QVKLVQSGGGLVQTGGSLRLSCAASEITFDMYSMGWYREAPGKARDAVASITNRGNTYYADSVKGRFTISRDNAKKTMYLQMNSLKPEDTAVYYCNVYRTGFSDYWGQGTQVTVSS	binds	binds
